Data as given in patent publication US20110236900, “NOVEL MUTS PROTEIN AND METHOD FOR DETERMING MUTATION USING THE SAME” (RIKEN, published 2011).

Experiments:
Aac MutS = test system: T1, Aac MutS; assay: SPR; conditions: purified recombinant protein, label: 5'-biotin on Del-strand, variant of C/G fully-matched duplex
T1 sequence: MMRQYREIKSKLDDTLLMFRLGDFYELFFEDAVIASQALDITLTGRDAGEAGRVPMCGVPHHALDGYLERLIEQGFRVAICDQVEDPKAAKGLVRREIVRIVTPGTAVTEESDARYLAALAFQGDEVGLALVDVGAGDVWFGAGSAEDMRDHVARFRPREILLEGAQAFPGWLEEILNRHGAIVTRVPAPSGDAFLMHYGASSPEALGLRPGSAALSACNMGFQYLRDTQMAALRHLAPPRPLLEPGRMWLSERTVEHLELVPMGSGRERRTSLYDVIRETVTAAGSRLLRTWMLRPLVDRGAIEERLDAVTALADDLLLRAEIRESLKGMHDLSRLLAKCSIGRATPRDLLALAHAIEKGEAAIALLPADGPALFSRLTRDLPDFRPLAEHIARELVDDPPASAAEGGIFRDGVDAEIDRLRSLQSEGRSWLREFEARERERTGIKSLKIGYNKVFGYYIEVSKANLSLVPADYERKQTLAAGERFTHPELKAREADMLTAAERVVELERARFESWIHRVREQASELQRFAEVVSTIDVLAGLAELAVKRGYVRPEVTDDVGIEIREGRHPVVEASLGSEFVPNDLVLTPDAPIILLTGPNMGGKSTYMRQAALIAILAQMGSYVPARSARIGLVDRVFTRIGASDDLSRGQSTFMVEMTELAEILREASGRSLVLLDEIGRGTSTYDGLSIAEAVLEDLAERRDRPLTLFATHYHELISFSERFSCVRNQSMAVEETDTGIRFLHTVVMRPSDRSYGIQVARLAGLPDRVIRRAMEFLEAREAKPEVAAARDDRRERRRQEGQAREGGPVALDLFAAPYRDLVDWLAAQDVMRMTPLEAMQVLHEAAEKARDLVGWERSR

[1] = biological target: T2, Taq MutS (Thermus aquaticus) (UniProt Q56215); assay: SPR; conditions: purified recombinant protein, label: 5'-biotin on Del-strand, variant of C/G fully-matched duplex
T2 sequence (looked up, limits assumed): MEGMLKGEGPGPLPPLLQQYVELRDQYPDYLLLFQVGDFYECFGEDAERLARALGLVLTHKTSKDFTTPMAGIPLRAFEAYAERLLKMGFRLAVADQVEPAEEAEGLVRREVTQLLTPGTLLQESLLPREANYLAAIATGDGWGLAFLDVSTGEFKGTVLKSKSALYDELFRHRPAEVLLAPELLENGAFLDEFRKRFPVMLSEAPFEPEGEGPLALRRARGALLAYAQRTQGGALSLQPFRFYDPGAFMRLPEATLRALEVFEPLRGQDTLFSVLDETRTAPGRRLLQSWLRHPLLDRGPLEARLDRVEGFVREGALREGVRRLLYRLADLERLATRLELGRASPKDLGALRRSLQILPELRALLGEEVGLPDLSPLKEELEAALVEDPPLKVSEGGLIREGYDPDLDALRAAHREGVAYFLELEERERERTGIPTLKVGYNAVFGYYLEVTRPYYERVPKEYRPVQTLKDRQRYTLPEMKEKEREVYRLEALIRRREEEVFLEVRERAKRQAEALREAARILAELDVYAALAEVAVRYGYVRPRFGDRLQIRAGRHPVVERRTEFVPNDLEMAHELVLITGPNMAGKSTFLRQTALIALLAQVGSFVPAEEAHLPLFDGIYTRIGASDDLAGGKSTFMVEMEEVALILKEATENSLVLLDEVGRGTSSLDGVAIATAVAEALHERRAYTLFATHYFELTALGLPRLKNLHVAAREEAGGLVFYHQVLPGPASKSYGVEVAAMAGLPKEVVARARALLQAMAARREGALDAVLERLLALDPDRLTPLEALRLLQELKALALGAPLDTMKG

Measured: binding result

CCGCTGAATTGCACCGAGCTGATCCTCGATGATCCTAAGCGATCCATG / CATGGATCGCTTAGGATCATCGAGGATCGAGCTCGGTGCAATTCAGCGG [Del/G deletion duplex]
binds: Aac MutS; 1 mM ADP, binding increased and dissociation suppressed | Aac MutS; 1 mM ATP, binding increased | Aac MutS; no nucleotide, 0.1-4 uM MutS, slow dissociation | [1]; 1 mM ADP, almost same as without ADP | [1]; 1 mM ATP, almost same as without ATP | [1]; no nucleotide, rapid dissociation

Construct, isoform or probe ends are uncertain for at least one entry. Where a protein sequence is shown, tags need not be part of it.
